The record followed here is publication PMC11749100.

In this data set the test system is p65 (NF-kB) + PPARγ. Kind of data set: EMSA. The settings on record: p65 and PPARγ incubated together with probe, no shifted band, PPARγ proposed to compete with probe for p65; Beyotime GS009 EMSA kit; 1 uL protein + 2 uL DNA, 20 min at room temperature; 4% non-denaturing PAGE; salt and pH not stated; recombinant protein; protein details: His (pET-21b(+)).

For at least one entry, the source does not settle the construct or the ends of the probe. A negative result means that nothing was seen under these conditions.

In the case of “GTCTTTTGTGGAAACTCCCCAAG (double strand) [CCL5 promoter probe]”, the binding result is reported as “no binding”.
